In the supplement of paper PMC12578635:
Some of the results follow. Cut-off read from the data, not from the text of the source: active = 150% or more and inactive = the rest. Repeats are few or missing, and single values can be far off.

system: Staphylococcus aureus JE2-lux inside RAW 264.7 macrophages; assay: intracellular bacterial bioluminescence relative to DMSO vehicle; higher = higher intracellular bacterial metabolic activity; details: 10 µM; treatment time 4 h; gentamicin 50 µg/ml

Intracellular bacterial bioluminescence, inactive:
C#CCn1/c(=N/C(=O)CN2C(=O)CCC2=O)sc2c3ccccc3ccc21 117%
COc1ccc(Nc2nc(C)c3nc(C)n(-c4ccc(OC)c(Cl)c4)c3n2)cc1Cl 87.6%
Cc1ccc(C)c(C(=O)Nc2nc3c(s2)COc2ccccc2-3)c1 66.3%
CN1C(=O)c2cccc(NC(=O)c3ccc(Br)s3)c2C1=O 63.3%
Cc1ccc(-c2nc(N)n(C(=O)C(c3ccccc3)c3ccccc3)n2)cc1C 98.8%
Cc1ccc(S(=O)(=O)N(C)c2cncc(C(=O)NC(C)CCc3ccccc3)c2)cc1 (centres undefined) 67.1%
C=CCn1c(NCCO)nc2sc3c(c2c1=O)CCC3 90.2%
O=C1NC(=S)N/C1=C\c1cc([N+](=O)[O-])ccc1OCc1ccccc1Cl 96.7%
O=C(NCc1ccccc1Cl)C1CCCN(c2nccnc2Oc2ccccc2)C1 (centres undefined) 69.4%
O=C(CCn1cnc2onc(-c3cc(F)cc(F)c3)c2c1=O)NCc1cccc(F)c1 133%
COc1ccc(C(=O)C2CCN(C(=O)Nc3ccccc3F)CC2)cc1 70.6%
O=C(Cn1cc(S(=O)(=O)c2ccccc2)c(=O)c2cc(F)ccc21)Nc1cccc(Cl)c1 87.4%
CCc1cc(=O)n2ncc(C(=O)Nc3cc(Cl)ccc3C)c2[nH]1 117%
CC(C)(C)NC(=O)CCn1c(-c2cccnc2)cc2cccnc21 95.1%
COc1ccc(OC)c(/C=N/NC(=O)CNC(=O)c2c(F)cccc2Cl)c1 77.1%
COc1ccccc1/N=c1\oc2ccc(Br)cc2cc1C(=O)NC(C)=O 112%
COCCn1/c(=N/C(=O)c2ccno2)sc2cc(S(C)(=O)=O)ccc21 114%
CCNc1nc(NCC)n2c(SCC(=O)Nc3ccc([N+](=O)[O-])cc3)nnc2n1 89.7%
COc1ccc(C2C(C#N)=C(SC)NC3=C2C(=O)CC(C)(C)C3)cc1 (centres undefined) 77.3%
CCN1CCN(c2nc3ncn(CC(=O)N4CCN(c5ccc(F)cc5)CC4)c(=O)c3s2)CC1 105%
O=C(Cn1c(=O)n2nc(-c3ccc(F)cc3)nc2c2ccccc21)N1CCN(c2ccc(F)cc2)CC1 102%
COC(=O)c1ccc(NC(=O)CSc2nc(-c3ccccc3C)ns2)cc1 66.4%
Cc1ccnc(SCc2cc(=O)c(OC(=O)c3c(F)cccc3Cl)co2)n1 87.4%
Cc1cc(OCC(=O)Nc2ccc3c(c2)nc2n3CCN(C(C)C)C2)ccc1Cl 41.9%
Cc1sc(NC(=O)C2(C)CCCO2)nc1-c1cc2ccccc2oc1=O (centres undefined) 91.1%
Cc1ccc(NC(=O)Cn2cnc3c(cnn3-c3ccc(F)cc3)c2=O)c(C)c1 94.7%
COC(=O)COc1cccc2c(=O)n(CC(=O)Nc3ccc([N+](=O)[O-])cc3)ccc12 43.9%
O=C(Nc1c(C(=O)Nc2ccccc2F)oc2ccccc12)c1ccc(Br)o1 82.7%
CCOc1ccc2ccccc2c1C(=O)Nn1cnc2c(cnn2-c2ccccc2)c1=O 140%
COC(=O)c1ccccc1NC(=O)CSc1nnc(CSc2nc(C)cc(C)n2)o1 112%
Cc1cc(C)c2c(n1)sc1c(=O)n(-c3cccc(C(=O)Nc4ccc(C(C)C)cc4)c3)cnc12 84.9%
Clc1ccccc1CCNc1ncnc2oc3c(c12)CCCC3 123%
COC(=O)CSC1=C(C#N)C(c2ccccc2)C(C(=O)Nc2ccccc2OC)=C(C)N1 (centres undefined) 83.8%
O=C1CCc2cc(S(=O)(=O)Nc3ccccc3N3CCOCC3)ccc2N1 105%
Cc1ccc(-c2cnnc(-n3nc(C)c4c3NC(=O)CC4c3ccc(C)c(C)c3)n2)cc1 (centres undefined) 121%
COc1ccc(CCN2C(=O)CC(Nc3ccc(N(C)C)cc3)C2=O)cc1OC (centres undefined) 51.4%
Cc1ccc(Cn2c(Sc3nnc(C)s3)nc3c2c(=O)[nH]c(=O)n3C)cc1 113%
CCOc1ccccc1/C=N/NC(=O)CNC(=O)c1cccs1 77.6%
Cc1nc(-c2ccccc2)c(CC(=O)NC(c2ccccc2)c2cccnc2)s1 (centres undefined) 93.5%
Cc1cc(=O)n2nc(CN(c3ccc(Cl)cc3)S(=O)(=O)c3ccccc3)nc2[nH]1 122%
CCOC(=O)c1ccc(Nc2nnc3nc(C)cc(C)n23)cc1 14.4%
CCOc1ccc(-c2nc3c(c(SCC(N)=O)n2)Cc2cccc(C)c2O3)cc1 95.6%
CCCc1cc(=O)[nH]c(SCC(=O)NCc2ccc3c(c2)OCO3)n1 85.9%
CCCc1cc(=O)[nH]c2nnc(SCC(=O)N(C)c3ccccc3)n12 123%
CCc1ccc2c(c1)c1nnc(SCC(=O)c3ccc(F)cc3)nc1n2C 81.7%
Cc1cccc(C2CCCN2C(=O)c2cc(C(C)C)on2)c1 (centres undefined) 114%
CCc1ccc2c(c1)c1nnc(SCC(=O)Nc3nnc(C)s3)nc1n2C 109%
CCOCc1nnc(NC(=O)c2csc(C(C)=O)c2)s1 132%
CCOC(=O)c1oc2cc(O)cc(O)c2c(=O)c1-c1ccc(OC)c(OC)c1 109%
CCCCOc1ccc(-c2cc3c(N4CCN(c5ccc(OC)cc5)CC4)nccn3n2)cc1 93.9%
CCc1ccccc1-n1ccn(CC(=O)c2ccc(F)cc2)c(=O)c1=O 108%
Nc1c(C(=O)c2ccc(Br)cc2)sc2nc3c(cc12)CCC3 119%
O=S(=O)(c1cc(-c2noc(C3CC3)n2)cs1)N1CCn2c1nc1ccccc12 90%
COc1cccc2c1Oc1nc(-c3ccccc3)[nH]c(=S)c1C2 98%
CCn1nc(-n2cnnc2)c(NS(=O)(=O)c2ccc(C3CCCCC3)cc2)c1C 108%
COc1ccccc1NC(=O)N1CCCC(C(=O)NCc2ccc(F)cc2)C1 (centres undefined) 111%
Cc1cc2cc(CCNC(=O)c3ccc(S(=O)(=O)N4CCOCC4)cc3)c(=O)[nH]c2cc1C 86.8%
O=C(CSc1nc(-c2ccccc2Cl)ns1)Nc1ccc2c(c1)OCO2 97.3%
Cc1nc2c(ccc3nc(NC(=O)c4ccco4)sc32)s1 105%
O=C(CNc1ccc(S(=O)(=O)C(F)(F)F)cc1[N+](=O)[O-])NC1CCS(=O)(=O)C1 (centres undefined) 106%
CCOc1ccccc1NC(=O)CC1Sc2ccc(C(F)(F)F)cc2NC1=O (centres undefined) 105%
Cc1ccc(Nc2nc(Nc3ccc4c(c3)OCO4)nc(N3CCOCC3)n2)cc1C 63.1%
COCCn1c2ccccc2n2c(=O)n(Cc3ccc(F)cc3)nc12 98%
Cc1ccc2c(c1)NC(SCC(=O)Nc1ccc(C)c(F)c1)=NS2(=O)=O 105%
Cc1ccnc(SCc2cc(=O)c(OC(=O)c3ccc(Br)o3)co2)n1 110%
Cn1c(=O)c2c(nc(CN3CCC(C(N)=O)CC3)n2Cc2ccccc2)n(C)c1=O 96.6%
CC1=C(C(=O)Nc2ccc(Cl)cc2)C(c2ccco2)C(C#N)=C(SCc2ccccc2)N1 (centres undefined) 105%
CC(=O)c1cccc(N(C(=O)c2cnccn2)C(C(=O)NC2CCCC2)c2cccs2)c1 (centres undefined) 82.4%
C=CCN1C(=O)/C(=C/c2ccco2)S/C1=N/c1nccs1 95.9%
CCOC(=O)N1CCN(C(=O)CCCn2c(=S)[nH]c3c([nH]c4ccc(OC)cc43)c2=O)CC1 114%
O=c1[nH]c2cc3c(cc2c(=O)n1Cc1nc(-c2ccccc2Br)no1)OCO3 51.9%
CC(C)c1csc(-c2csc(S(=O)(=O)NCc3ccc4c(c3)OCO4)c2)n1 39.5%
Cc1nc(-c2csc(S(=O)(=O)NCc3ccccc3Cl)c2)sc1C 89.6%
Cc1cc2oc(C(=O)NCc3ccncc3)c(C)c2cc1C 43.9%
CSC1=C(C#N)C(c2ccco2)C(C(=O)Nc2ccccc2C)=C(C)N1 (centres undefined) 95.3%
NC(=O)c1ccc(NC(=O)c2cn(Cc3cccc(F)c3)nc2OCc2cccc(F)c2)cc1 92.4%
Cc1ccc(Cn2nnc3c(SCC(=O)NCc4ccc5c(c4)OCO5)ncnc32)cc1 88.1%
Nc1c(-c2nc(-c3ccncc3)no2)nnn1-c1ccccc1Cl 80.1%
O=C(CCn1c(=O)sc2ccccc21)Nc1ccccc1F 88.6%
COc1cccc(-c2nnc(SCC(=O)Nc3ccc(C(C)=O)cc3)n2-n2cccc2)c1 73.6%
Cc1n[nH]c(=O)nc1N/N=C/c1ccc(N(C)C)cc1 105%
O=C(Nc1ccccc1-n1cccc1)c1cnccn1 104%
COCCn1c(SCC(=O)Nc2cccc([N+](=O)[O-])c2)nc2c(c1=O)SCC2 51.3%
O=C(CS(=O)(=O)c1c[nH]c2ccccc12)N1CCc2ccccc21 89.2%
CCc1cccc2sc(N(Cc3ccccn3)C(=O)c3ccc(C#N)cc3)nc12 111%
COc1ccc(C(=O)Nc2ccc3nc[nH]c3c2)cc1OC 78.3%
O=C(Nc1ccon1)c1cccn(OCc2ccccc2F)c1=O 65.5%
CCS(=O)(=O)c1ccc(C(=O)/N=c2/sc3cccc(Cl)c3n2C)cc1 85.1%
Cc1ccc(C)c2[nH]c(=O)c(CCNC(=O)COc3ccc(Cl)cc3Cl)cc12 69.6%

Taken from above, three compounds:
Intracellular bacterial bioluminescence, inactive:
CC(C)c1csc(-c2csc(S(=O)(=O)NCc3ccc4c(c3)OCO4)c2)n1 39.5%
Cc1nc(-c2csc(S(=O)(=O)NCc3ccccc3Cl)c2)sc1C 89.6%
Cc1cc2oc(C(=O)NCc3ccncc3)c(C)c2cc1C 43.9%

Molecules above that have a CF3 group:
Intracellular bacterial bioluminescence, inactive:
O=C(CNc1ccc(S(=O)(=O)C(F)(F)F)cc1[N+](=O)[O-])NC1CCS(=O)(=O)C1 (centres undefined) 106%
CCOc1ccccc1NC(=O)CC1Sc2ccc(C(F)(F)F)cc2NC1=O (centres undefined) 105%
